Results: publication PMC2947498
No constants are given. Whether binding was seen depends on the method and setting. Binding seen in cells or lysates may run through a third protein. Some binding calls cover weakened binding; strength is not graded here.

The chains behind the UniProt entries cited, without tags or fusion partners. Where a name states a change or a piece, a line headed by the entry shows the natural chain unless it says otherwise. A line that says so, or that is headed by a name, gives the form on record, which may keep a tag or linker. Residues count along the entry.
UniProt P61586: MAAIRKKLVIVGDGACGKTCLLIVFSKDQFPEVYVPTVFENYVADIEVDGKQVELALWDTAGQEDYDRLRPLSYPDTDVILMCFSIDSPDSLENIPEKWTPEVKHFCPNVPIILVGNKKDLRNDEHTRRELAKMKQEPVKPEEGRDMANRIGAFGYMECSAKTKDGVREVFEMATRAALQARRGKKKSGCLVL
GST-RhoAV14 (P61586, form named): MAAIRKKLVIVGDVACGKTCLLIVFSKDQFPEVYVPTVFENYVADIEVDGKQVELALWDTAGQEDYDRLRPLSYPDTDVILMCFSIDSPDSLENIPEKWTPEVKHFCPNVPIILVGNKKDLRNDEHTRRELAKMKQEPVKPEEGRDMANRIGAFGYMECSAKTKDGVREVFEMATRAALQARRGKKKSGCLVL
UniProt Q9Y4D1, residues 1-545: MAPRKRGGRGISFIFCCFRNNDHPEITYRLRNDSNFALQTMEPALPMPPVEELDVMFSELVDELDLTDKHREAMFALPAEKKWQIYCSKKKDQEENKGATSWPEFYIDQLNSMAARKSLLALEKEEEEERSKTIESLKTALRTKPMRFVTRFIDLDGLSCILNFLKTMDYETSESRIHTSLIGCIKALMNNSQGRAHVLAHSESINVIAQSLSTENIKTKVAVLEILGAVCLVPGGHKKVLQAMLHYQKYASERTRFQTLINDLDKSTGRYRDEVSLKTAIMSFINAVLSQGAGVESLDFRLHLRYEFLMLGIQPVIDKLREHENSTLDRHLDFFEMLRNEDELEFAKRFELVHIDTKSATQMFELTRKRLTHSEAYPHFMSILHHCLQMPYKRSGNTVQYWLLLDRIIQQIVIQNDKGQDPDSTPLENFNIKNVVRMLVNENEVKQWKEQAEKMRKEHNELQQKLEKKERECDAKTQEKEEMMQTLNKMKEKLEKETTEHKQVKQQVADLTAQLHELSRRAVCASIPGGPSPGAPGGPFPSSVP

Target: GST-RhoAV14 (UniProt P61586)
Test: pull-down; in-vitro pulldown: equal amounts of DAAM1-N WT or GBD mutants added to Sepharose beads loaded with GST or GST-RhoAV14; transferred to PVDF, stained and probed

binding: binds
Substance: GFP-Flag-DAAM1-N (residues 1-545) (from UniProt Q9Y4D1 1-545) (domain or fragment)
